From patent publication US9198422B2, “Pesticidal pyrazole compounds” (BASF SE, priority 2011, dated 2015)
Some entries share one result that the patent states for a list of compounds.

What was measured:
Format in all cases: in vivo
[1] = system: Aphis craccivora; experiment: B.1 Cowpea aphid spray test on potted cowpea plants; conditions: 500 ppm; population reduction assessed after 24, 72 and 120 hours
Experimental: If not otherwise specified the test solutions were prepared as follows:
The active compound was dissolved at the desired concentration in a mixture of 1:1 (vol:vol) distilled water:aceton. The test solution was prepared at the day of use and in general at concentrations of ppm (wt/vol).
B.1 Cowpea Aphid (Aphis craccivora)
Potted cowpea plants colonized with 100-150 aphids of various stages were sprayed after the pest population had been recorded. Population reduction was assessed after 24, 72, and 120 hours.

[2] = system: Myzus persicae; experiment: B.5 Green peach aphid spray test on bell pepper plants; conditions: 10 ppm; after 5 days
Experimental: B.5 Green Peach Aphid (Myzus persicae)
The active compounds were formulated in cyclohexanone as a 10,000 ppm solution supplied in 1.3 ml ABgene® tubes. These tubes were inserted into an automated electrostatic sprayer equipped with an atomizing nozzle and they served as stock solutions for which lower dilutions were made in 1:1 (vol:vol) water:aceton. A nonionic surfactant (Kinetic®) was included in the solution at a volume of 0.01% (v/v).
Bell pepper plants at the first true-leaf stage were infested prior to treatment by placing heavily infested leaves from the main colony on top of the treatment plants. Aphids were allowed to transfer overnight to accomplish an infestation of 30-50 aphids per plant and the host leaves were removed. The infested plants were then sprayed by an automated electrostatic plant sprayer equipped with an atomizing spray nozzle. The plants were dried in the sprayer fume hood, removed, and then maintained in a growth room under fluorescent lighting in a 24 hour photoperiod at 25° C. and 20-40% relative humidity. Aphid mortality on the treated plants, relative to mortality on untreated control plants, was determined after 5 days.

[3] = system: Megoura viciae; experiment: B.4 Vetch aphid bean leaf disk microtiter test; conditions: 2500 ppm; 6 days
Experimental: B.4 Vetch Aphid (Megoura viciae)
The active compounds were formulated in 3:1 (vol:vol) water:DMSO with different concentrations of formulated compounds.
Bean leaf disks were placed into microtiterplates filled with 0.8% agar-agar and 2.5 ppm OPUS™. The leaf disks were sprayed with 2.5 μl of the test solution and 5 to 8 adult aphids were placed into the microtiter plates which were then closed and kept at 23±1° C. and 50±5% relative humidity under fluorescent light for 6 days. Mortality was assessed on the basis of vital, reproduced aphids. Aphid mortality and fecundity was then visually assessed.

Row | SMILES | mortality in comparison with untreated controls [1] | mortality in comparison with untreated controls [2] | mortality in comparison with untreated controls [3]
1 | Cc1c(C(=O)N(C)c2ccnnc2)cnn1C(C)C1CCOCC1 (racemic) [I-176] | at least 75% | at least 75% | 
2 | CCN(C(=O)c1cnn(C2(C(F)(F)F)CCCCC2)c1C)c1ccnnc1 [I-111] | at least 75% | at least 75% | 
3 | CCN(C(=O)c1cnn(C(C)C(=O)NC)c1C)c1ccnnc1 (stereo not drawn) [I-303] | at least 75% | at least 75% | 
4 | CCC(CC)n1ncc(C(=O)N(C)c2ccnnc2)c1C(F)(F)F [I-53] | at least 75% |  | at least 75%
5 | Cc1c(C(=O)Nc2cccnc2)cnn1C1CSC1 [I-221] | at least 75% |  | at least 75%
6 | Cc1c(C(=O)Nc2ccnnc2)cnn1C1CCN(C)CC1 [I-89] |  | at least 75% | 
7 | CCOC(=O)CC(C)n1ncc(C(=O)Nc2ccnnc2)c1C (racemic) [I-231] | at least 75% |  | at least 75%
8 | Cc1c(C(=O)Nc2ccnnc2)cnn1C1(C(F)(F)F)CCOCC1 [I-130] | at least 75% | at least 75% | at least 75%
9 | CCOC(=O)CC(C)n1ncc(C(=O)Nc2cccnc2)c1C (stereo not drawn) [I-230] | at least 75% |  | at least 75%
10 | C=CC(C)n1ncc(C(=O)N(C)c2ccnnc2)c1C (stereo not drawn) [I-69] | at least 75% | at least 75% | at least 75%
11 | Cc1c(C(=O)N(C)c2cccnc2)cnn1C1(C#N)CCCCC1 [I-84] | at least 75% | at least 75% | at least 75%
12 | CCC(CC)n1ncc(C(=O)Nc2cccnc2)c1C [I-50] | at least 75% | at least 75% | at least 75%
13 | Cc1c(C(=O)N(C)c2ccnnc2)cnn1C(C)COc1ccccc1 (stereo not drawn) [I-291] | at least 75% | at least 75% | 
14 | Cc1c(C(=O)N(C)c2ccnnc2)cnn1C1CSC1 [I-218] | at least 75% |  | at least 75%
15 | CCN(C(=O)c1cnn(C2(C(F)(F)F)CCCCC2)c1C)c1cccnc1 [I-124] | at least 75% | at least 75% | at least 75%
16 | Cc1c(C(=O)Nc2cccnc2)cnn1C1(C(F)(F)F)CCCCC1 [I-122] | at least 75% |  | at least 75%
17 | Cc1c(C(=O)Nc2ccnnc2)cnn1C(C)CC#N (stereo not drawn) [I-74] | at least 75% | at least 75% | at least 75%
18 | Cc1c(C(=O)Nc2ccnnc2)cnn1C(C)c1ccncc1 (stereo not drawn) [I-126] | at least 75% | at least 75% | at least 75%
19 | CCN(C(=O)c1cnn(C(C)c2ccsc2)c1C)c1ccnnc1 (stereo not drawn) [I-284] | at least 75% | at least 75% | 
20 | CCOC(=O)C(C)C(C)n1ncc(C(=O)N(CC)c2ccnnc2)c1C (mixture of isomers) [I-247] | at least 75% |  | at least 75%
21 | CCN(C(=O)c1cnn(C(C)C(C)F)c1C)c1ccnnc1 (single isomer, unassigned) [I-156] | at least 75% |  | at least 75%
22 | CC(n1ncc(C(=O)N(C)c2ccnnc2)c1C(F)(F)F)C(C)(C)C (racemic) [I-57] | at least 75% |  | at least 75%

Row | SMILES | mortality in comparison with untreated controls [1] | mortality in comparison with untreated controls [2] | mortality in comparison with untreated controls [3]
23 | Cc1c(C(=O)N(C)c2ccnnc2)cnn1C(C)(C)CS(C)(=O)=O [I-3] | at least 75% |  | at least 75%
24 | Cc1c(C(=O)Nc2ccnnc2)cnn1C1CCC1 [I-19] | at least 75% | at least 75% | at least 75%
25 | COCN(C(=O)c1cnn(C(C)C(C)(C)C)c1C(F)(F)F)c1ccnnc1 (racemic) [I-58] | at least 75% |  | at least 75%
26 | CCOC(=O)C(C)n1ncc(C(=O)Nc2ccnnc2)c1C (stereo not drawn) [I-274] | at least 75% |  | at least 75%
27 | CCN(C(=O)c1cnn(C(C(F)(F)F)C(F)(F)F)c1C)c1ccnnc1 [I-37] | at least 75% | at least 75% | 
28 | CCOC(=O)C(C)n1ncc(C(=O)N(C)c2ccnnc2)c1C (stereo not drawn) [I-270] | at least 75% |  | at least 75%
29 | C=CC(C)n1ncc(C(=O)N(CC)c2ccnnc2)c1C (stereo not drawn) [I-70] | at least 75% |  | at least 75%
30 | CCOC(=O)C(C)n1ncc(C(=O)N(C)c2cccnc2)c1C (stereo not drawn) [I-273] | at least 75% |  | at least 75%
31 | Cc1c(C(=O)Nc2cccnc2)cnn1C1C[S+]([O-])C1 (stereo not drawn) [I-256] | at least 75% |  | at least 75%
32 | Cc1c(C(=O)Nc2ccnnc2)cnn1C1(C#N)CCCCC1 [I-82] | at least 75% | at least 75% | at least 75%
33 | CCN(C(=O)c1cnn(C(C)C2(S(C)(=O)=O)CC2)c1C)c1cccnc1 (stereo not drawn) [I-309] | at least 75% |  | at least 75%
34 | CCN(C(=O)c1cnn(C(C)Cc2ccc(Cl)nc2)c1C)c1cccnc1.O=C(O)C(F)(F)F (stereo not drawn) [I-222] | at least 75% |  | at least 75%
35 | CCC(CC)n1ncc(C(=O)Nc2ccnnc2)c1C(F)(F)F [I-52] | at least 75% |  | at least 75%
36 | Cc1c(C(=O)N(C)c2ccnnc2)cnn1C1(C(F)(F)F)CCCCC1 [I-110] | at least 75% | at least 75% | 
37 | CCN(C(=O)c1cnn(C(C)COc2ccccc2)c1C)c1ccnnc1 (stereo not drawn) [I-293] | at least 75% | at least 75% | 
38 | Cc1c(C(=O)N(C)c2ccnnc2)cnn1C(C)Cc1ccc(Cl)nc1 (stereo not drawn) [I-194] | at least 75% | at least 75% | at least 75%
39 | Cc1c(C(=O)Nc2ccnnc2)cnn1C(C)C(C)(C)C (racemic) [I-41] | at least 75% |  | at least 75%
40 | Cc1c(C(=O)Nc2ccnnc2)cnn1C(C)C1(S(C)(=O)=O)CC1 (stereo not drawn) [I-304] | at least 75% |  | at least 75%
41 | C=CC(C)n1ncc(C(=O)N(COC)c2ccnnc2)c1C (stereo not drawn) [I-71] | at least 75% | at least 75% | at least 75%
42 | CNC(=O)C(C)n1ncc(C(=O)N(C)c2ccnnc2)c1C (stereo not drawn) [I-288] | at least 75% | at least 75% | 
43 | Cc1c(C(=O)N(C)c2cccnc2)cnn1C(C)(C)C#N [I-244] | at least 75% |  | at least 75%
